{"source": "patent US20250134942A1", "about": "“COMPOSITION FOR IMPROVING MUSCLE STRENGTH, COMPRISING, AS ACTIVE INGREDIENT, AUREOBASIDIUM PULLULANS FERMENTATION PRODUCT WITH INCREASED AMOUNT OF BETAGLUCAN, AND PREPARATION METHOD THEREFOR” (GLUCAN, INC, priority 2022, published 2025)", "key": {"Foxo3a": {"test_system": "Foxo3a", "assay": "Western blot protein expression in C2C12 myotube cells", "format": "cell-based", "conditions": "dexamethasone treatment group vs. CTL"}, "MuRF1": {"test_system": "MuRF1", "assay": "Western blot protein expression in C2C12 myotube cells", "format": "cell-based", "conditions": "dexamethasone treatment group vs. CTL"}}, "note": "For at least one compound, name, drawing or mass did not settle the structure."}
{"smiles": "C[C@@H]1C[C@H]2[C@@H]3CCC4=CC(=O)C=C[C@]4(C)[C@@]3(F)[C@@H](O)C[C@]2(C)[C@@]1(O)C(=O)CO", "note": "[dexamethasone]", "values": [{"measurement": "protein level of FOXO3α", "setting": "Foxo3a", "value": "increased significantly"}, {"measurement": "protein level of MURF1", "setting": "MuRF1", "value": "increased significantly"}]}
